US7732178B2, “Laccase enzymes and their uses” (AB Enzymes Oy, priority 2004, dated 2010)

B1: CtLcc1: Chaetomium thermophilum ALKO 4265 laccase, SEQ ID NO: 47, produced in Trichoderma reesei (protein)
chain: MKFLTYATALLGALTAVVGAIPTRSGTKKKYIRDGPGPCHTPSNRACWAPGFDINTDYEVNTPNTGVTRNYTLTLTEEDNWTGPDGVVKEKIMLVNGKTLGPTIEANWGDWIEVKVINNLLTNGTSIHWHGIHQKGSNLHDGANGVTECPIPPNGGQRTYRFRAQQYGTSWYHSHFSAQYGNGIVGPIVIHGPASLPYDIDLGPFPLTDYYYKSADELVRHTQNNGPPFSDNVLFNGTGVHPQTGHGQYAKVTLTPGKRHRLRIINMSTENHFQVSLVGHQFTVIAADMVPVHSYTTDSLFLAVGQRYDVTIDASQTPGNYWFNVTFGGGFACGGSFNPNPAAIFHYEGAPDALPTDPGVPPRDHNCLDTLDLVPVVPRNVQVNQFVKKPENTLPVELSLGGTPLFVWKVNGSAIDVDWGNPVLQYVMDRNTSYRQADNIVEVNGVNQWTYWLIENDPNGAFSLPHPMHLHGHDFLIVGRSPDVPPGSNQRYNFDPATDIYRLRGQNPTRRDVAMLPAGGWLLLAFLTDNPGAWLFHCHIAWHVSGGLSVDFLERPNDLRNSILQHDKDEFNRVCNEWRTYWPNSPHPKIDSGLKHRWVEESEWLVR
modifications: Chaetomium thermophilum ALKO4265; (1)..(607) Deduced amino acid sequence of Chaetomium thermophilum ALKO4265 CtLcc1
B2: TaLcc2: Thielavia arenaria ALKO 4197 laccase, SEQ ID NO: 41, produced in Trichoderma reesei (protein)
chain: MLTETLKSRNMLQSILALLATALGSSAFAIPELPEVSLQPRQACENTATSRQCWGDLSIDTNYYEVLPSTGRPPQEYWLSVVEGPCAPDGYNRTCMTFNGTVPGPTLFADWGDELVIHVTNNMVNNGTAIHWHGIRMLNNTLNDGVPGVTQCAIAPGESMTYRFNVTQYGSTWYHSHFSLQYAEGLFGGMILRGPSTANWDEDLGVLFLQDWSHVEAFTRWHEAKAGFPPSLDGGLINGTNTFDCSTLSPTDPKCTGNGKKFETVFEPGKKYLIRLINVAIDGVFQFSIDGHSLTVIATDLVPIVPYTTDSVQITIGQRYDIIVEANATPGNYWMRADWVTACVTNDHPEHMTGIVRYDASSIDPPTSESNVTKTSSCLGEPNEKTIPHLSLDVTNIGGTNVEELSFDTTSGDYFQWTLNTSSLVLDWGNPTMARIFNGDAIFPTEYNVVAVNKTGTGPEWTVLVIQDQSNLPIAHPIHLHGHDFWVLAAEEGVFNGNISSFNTRNPARRDVATLPGRGYLAIAFQIDNPGTWLTHCHIAWHASQGLSLEFVESQSEIVTDEVSRGVFNDVCASWRAHDPLWEQEDSGI
modifications: Thielavia arenaria ALKO4197; (1)..(589) Deduced amino acid sequence of Thielavia arenaria ALKO4197 TaLacc2
B3: TaLcc3: Thielavia arenaria ALKO 4197 laccase, SEQ ID NO: 43, produced in Trichoderma reesei (protein)
chain: MVCLQYQLTAACFAVLAVVTTPASCSPVQPSPVHDLLPRQTIIPGGKPCGQNNATNRGCWKNNWNITTDYEVDTPPAFNTRVYDLHITNVTNWLGPDGVRKPAMLINGSFPGPTISADWGDYIIVNVHNDMQDNGTSIHWHGIRQLGESNQDGANGVTECPIPPGSSKTYDFHVTQYGTSWYHSHYSNQYGNGVVGALIVRGPASANYDIDLGPYLISDYYYETADRLHLRAELVSNGPPPDSDNILFRGKNINPKRAGSGSYDRLVLTPGKKHLIRLINASVDNSFVISLVGHNFTVISTDMVPITPVVRSSLFMGVGQRYDVIVEANQPVGNYWLNATLEAQNNCGHSVNPFPAAIVQYEGASSTALPTNRGTPLTATCNGEKGFSPIVKRTVSSSLFQPSTLPVSLEFPTTDRGQVFEWRVKNTPISVEWEHPVLEYILQGNTSFPAKANLIEVPQANVWTFWVIQNGFGLPHPIHLHGHDFLVLGVGNGTFDAASMRGLLNFNNPVRRDVEQMPGNGWLVIAFKTDNPGCWLMHCHIGWHVAMGLGIQFLERRSDILALMKLDQMVPNCEAWRAYARTSPYLPKLDSGLKRGVEMREGMEPAVRRIG
modifications: Thielavia arenaria ALKO4197; (1)..(611) Deduced amino acid sequence of Thielavia arenaria LAKO4197 TaLcc3
B4: TaLcc4: Thielavia arenaria ALKO 4197 laccase, SEQ ID NO: 45, produced in Trichoderma reesei (protein)
chain: MISRLLFTSSFTATLASALPGLLYAPHSSALLARSSCSGNTASTRSQWCDYSIDTDYTTEPVDTGVTREYWLELTDVTVSPDGVSRSAMAVNGSIPGPTIFADWGDTVVVHVTNSLSTSLNGTSIHWHGIRQNYTNQNDGVASITQCPLAVGESTTYTWKATQYGSSWYHSHFSLQAWEGVFGGIIINGPSTANYDEDLGMLFLNDWDHQTVDELYSSAETSGPPTLANGLINGTNVYGEDGDSSQTGTRLAVSFTSGTSYRMRLVNAAVDTHWKFSIGNHTMTVMAADLVPIEPYETTVLTIGMGQRYDIVVTADQADVADNFWMRAIPQSACSDNDSADNIRGIVYYGDSPGTPSTTGYDFEDACDDETANITPYISKTVSSAEWNDLETASVSRNSAGLFKWYLNSTTMLVDWAKPTLEMVTDNVTEYDSDDAIIELNEANQWVYMVVQTTLQVPHPIHLHGHDFFILAQGSGTYDSSTVTLKTDNPPRRDTAMLPSQGYLVMAWETDNPGVWLMHCHIGWHTSEGFALQFIERKSEIASIVSTSTMKDICTKWEEFQEEYSIEQEDSGV
modifications: Thielavia arenaria ALKO4197; (1)..(573) Deduced amino acid sequence of Thielavia arenaria ALKO4197 TaLcc4
B5: TaLcc1: Thielavia arenaria ALKO 4197 laccase, SEQ ID NO: 39, produced in Trichoderma reesei (protein)
chain: MKSWAAAVALMVGILSPHAAAAPPANPVQRDMLQVLEARQSGPTCNTPSNRACWTNGFDINTDYEVSTPNTGRTVAYQLTLTEKENWIGPDGVLKNVVMLVNDKIIGPTIRANWGDNIEVTVINNLKTNGTSMHWHGLRQLGNVFNDGANGVTECPIPPKGGRKTYKFRATQYGTSWYHSHFSAQYGNGVVGTIQIDGPASLPYDIDLGVFPLMDYYYRSADELVHFTQSNGAPPSDNVLFNGTARHPETGAGQWYNVTLTPGKRHRLRIINTSTDNHFQVSLVGHNMTVIATDMVPVNAFTVSSLFLAVGQRYDVTIDANSPVGNYWFNVTFGDGLCGSSNNKFPAAIFRYQGAPATLPTDQGLPVPNHMCLDNLNLTPVVTRSAPVNNFVKRPSNTLGVTLDIGGTPLFVWKVNGSAINVDWGKPILDYVMSGNTSYPVSDNIVQVDAVDQWTYWLIENDPTNPIVSLPHPMHLHGHDFLVLGRSPDELPSAGVRHIFDPAKDLPRLKGNNPVRRDVTMLPAGGWLLLAFKTDNPGAWLFHCHIAWHVSGGLSVDFLERPNDLRTQLNSNAKRADRDDFNRVCREWNAYWPTNPFPKIDSGLRHRFVEESEWMVR
modifications: Thielavia arenaria ALKO4197; (1)..(617) Deduced amino acid sequence of Thielavia arenaria ALKO4197 TaLcc1

How the values were obtained:
[1] = pH optimum / pH range of activity on guaiacol; type: biochemical; conditions: McIlvaine buffer, guaiacol as substrate
[2] = Isoelectric focusing (pI); type: physicochemical
Procedure: Molecular weight of the T. arenaria and C. thermophilum laccases were determined on SDS-PAGE according to Laemmli (1970) The gels used in the SDS-PAGE analysis were ready-made 12% Tris HCl gels (BioRad). Protein bands were visualized by staining with Coomassie Brilliant Blue (R 350; Pharmacia) and compared with molecular weight markers (Prestained Protein Marker Broad Range #7708S; New England BioLabs, Beverly, Mass.). The molecular weight of the both laccases was approximately 80 kDa. The isoelectric point of the laccases was determined with isoelectric focusing within the pH range of 3-9 (Pharmalyte IEF, Pharmacia) on a LKB 2117 Multiphor II Electrophoresis System (LKB Pharmacia, Bromma, Sweden) according to the manufacturer's instructions.
The purified recombinant Thielavia and Chaetomium laccases were characterized in terms of pH optimum, thermal stability, and pI as described in Example 2. The molecular weight was determined by MALDI-TOF mass spectrometry on a Ultraflex™ time-of-flight instrument (BrukerDaltonics, Germany) as previously described (Palonen et al., 2003). The redox-potentials of the T1 coppers of for CtLcc, and TaLcc2 laccases were determined by photometric copper titration in 0.1 M KH2PO4 (pH 6.0) as described by Xu et al. (1996) using the redox titrant couple K3Fe(CN)6/K4Fe(CN)6. The redox potential of TaLcc1 was determined with a combined Pt—AgCl/KCl microelectrode at pH 5.0 according to Sigoillot et al (2004). The characterization results are collected to Table 14.

Row | Molecule | pH optimum on guaiacol [1] | pH optimum on guaiacol ([1]; listed as CtLcc 1) | Number of pI isoforms (bands in isoelectric focusing) [2]
1 | B1 | 5.0 guaiacol | 5.0 | 3-4
2 | B2 |  |  | 1
3 | B3 |  |  | 2
4 | B4 |  |  | 1
5 | B5 | 6.0 guaiacol |  | 6-7
